The other results are listed elsewhere or left out.
Tests used:
Test in all cases: log2 fold change, soluble protein after heating vs DMSO (PISA); higher = thermal stabilisation; K562 lysate, 10 uM; active = over 0.2 and 3.5 SD of the protein, either way, in both replicates (recomputed)
vemurafenib = compound: CCCS(=O)(=O)Nc1ccc(F)c(C(=O)c2c[nH]c3ncc(-c4ccc(Cl)cc4)cc23)c1F [vemurafenib]
Outline: (§1)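 Values give the log-two fold change in thermal stability against solvent controls, from duplicates. Crude K562 extract at 1 mg/mL protein, made by dounce homogenisation in PBS pH 7.4 with 1 mM MgCl2, was treated with 10 μM compound for 30 min. After 3 min heating across 48°C-58°C, aliquots were pooled, adjusted to 0.5% NP-40 at 4°C and centrifuged at 21,000xg for 90 min. The supernatant was measured by TMTpro 16plex LC-MS/MS with channel sums equalised.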

Sequences of proteins named here, by UniProt entry; tags and fusion partners are left off. A change or cut given only in a name is not applied to a line headed by its entry.
UniProt Q96I34: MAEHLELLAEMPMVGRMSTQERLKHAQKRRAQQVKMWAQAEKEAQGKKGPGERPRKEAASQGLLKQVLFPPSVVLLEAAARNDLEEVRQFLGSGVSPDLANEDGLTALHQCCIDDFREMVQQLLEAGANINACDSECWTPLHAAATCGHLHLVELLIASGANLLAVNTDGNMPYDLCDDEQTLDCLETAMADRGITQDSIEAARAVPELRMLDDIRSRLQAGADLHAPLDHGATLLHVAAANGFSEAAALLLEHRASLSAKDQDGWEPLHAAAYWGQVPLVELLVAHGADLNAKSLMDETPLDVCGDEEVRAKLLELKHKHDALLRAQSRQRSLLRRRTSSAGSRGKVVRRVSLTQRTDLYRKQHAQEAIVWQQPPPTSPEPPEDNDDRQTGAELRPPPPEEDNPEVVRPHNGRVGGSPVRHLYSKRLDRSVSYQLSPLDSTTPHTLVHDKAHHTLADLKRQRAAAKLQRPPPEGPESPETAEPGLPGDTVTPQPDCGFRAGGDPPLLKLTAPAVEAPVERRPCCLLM
UniProt Q92733: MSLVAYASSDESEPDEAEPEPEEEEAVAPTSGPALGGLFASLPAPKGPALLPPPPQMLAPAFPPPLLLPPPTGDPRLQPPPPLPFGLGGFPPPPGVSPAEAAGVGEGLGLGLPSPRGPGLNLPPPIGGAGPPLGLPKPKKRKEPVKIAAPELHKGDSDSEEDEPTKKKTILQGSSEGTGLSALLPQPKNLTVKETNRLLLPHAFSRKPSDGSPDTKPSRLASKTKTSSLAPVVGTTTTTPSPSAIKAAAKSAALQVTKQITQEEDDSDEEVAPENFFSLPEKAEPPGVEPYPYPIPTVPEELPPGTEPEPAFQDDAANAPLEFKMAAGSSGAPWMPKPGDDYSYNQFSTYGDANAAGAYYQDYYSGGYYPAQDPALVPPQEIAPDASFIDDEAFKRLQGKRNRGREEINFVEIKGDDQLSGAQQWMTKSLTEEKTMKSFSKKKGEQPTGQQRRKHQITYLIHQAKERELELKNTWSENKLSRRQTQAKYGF
UniProt Q8TAE6: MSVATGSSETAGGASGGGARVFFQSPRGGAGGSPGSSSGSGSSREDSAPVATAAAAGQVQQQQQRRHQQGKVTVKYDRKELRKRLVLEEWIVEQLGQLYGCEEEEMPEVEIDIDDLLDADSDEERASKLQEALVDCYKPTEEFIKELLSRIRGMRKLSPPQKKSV
UniProt Q96SB3: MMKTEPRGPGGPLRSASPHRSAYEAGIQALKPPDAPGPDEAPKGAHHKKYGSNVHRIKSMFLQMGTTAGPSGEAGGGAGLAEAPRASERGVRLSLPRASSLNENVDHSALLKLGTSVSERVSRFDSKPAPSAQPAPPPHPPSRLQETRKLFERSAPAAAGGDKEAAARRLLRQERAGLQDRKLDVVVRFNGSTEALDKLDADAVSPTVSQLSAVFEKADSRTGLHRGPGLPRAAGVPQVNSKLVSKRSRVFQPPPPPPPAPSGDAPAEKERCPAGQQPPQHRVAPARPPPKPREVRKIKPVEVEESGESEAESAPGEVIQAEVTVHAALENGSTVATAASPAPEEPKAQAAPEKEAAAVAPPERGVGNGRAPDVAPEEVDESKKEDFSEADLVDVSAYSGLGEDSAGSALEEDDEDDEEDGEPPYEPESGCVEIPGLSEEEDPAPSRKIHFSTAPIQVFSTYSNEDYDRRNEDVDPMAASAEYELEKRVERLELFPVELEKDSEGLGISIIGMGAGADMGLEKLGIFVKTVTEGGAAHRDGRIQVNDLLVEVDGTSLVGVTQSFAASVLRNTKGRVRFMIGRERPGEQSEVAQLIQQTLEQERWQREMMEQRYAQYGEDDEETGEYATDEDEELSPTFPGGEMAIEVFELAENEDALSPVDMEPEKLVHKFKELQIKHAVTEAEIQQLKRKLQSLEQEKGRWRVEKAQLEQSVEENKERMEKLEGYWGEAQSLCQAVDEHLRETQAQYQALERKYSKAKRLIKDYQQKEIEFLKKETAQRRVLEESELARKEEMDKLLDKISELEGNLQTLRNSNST
UniProt P30153, whole entry, looked up: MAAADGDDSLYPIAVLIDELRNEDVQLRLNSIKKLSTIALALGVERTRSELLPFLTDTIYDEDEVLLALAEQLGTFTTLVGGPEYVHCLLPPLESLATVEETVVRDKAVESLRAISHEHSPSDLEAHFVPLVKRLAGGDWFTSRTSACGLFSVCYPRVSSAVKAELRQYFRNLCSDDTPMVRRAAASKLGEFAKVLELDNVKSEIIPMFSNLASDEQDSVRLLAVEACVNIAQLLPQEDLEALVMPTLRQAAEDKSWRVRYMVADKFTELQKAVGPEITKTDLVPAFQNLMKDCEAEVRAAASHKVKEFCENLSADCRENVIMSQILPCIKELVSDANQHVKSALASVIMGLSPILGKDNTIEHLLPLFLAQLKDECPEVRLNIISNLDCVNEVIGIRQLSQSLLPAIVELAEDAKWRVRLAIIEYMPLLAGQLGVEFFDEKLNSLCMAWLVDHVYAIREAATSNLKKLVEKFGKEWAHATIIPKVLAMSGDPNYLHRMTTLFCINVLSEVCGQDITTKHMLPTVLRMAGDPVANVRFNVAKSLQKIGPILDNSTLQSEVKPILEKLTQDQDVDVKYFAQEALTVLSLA
UniProt P78395, whole entry, looked up: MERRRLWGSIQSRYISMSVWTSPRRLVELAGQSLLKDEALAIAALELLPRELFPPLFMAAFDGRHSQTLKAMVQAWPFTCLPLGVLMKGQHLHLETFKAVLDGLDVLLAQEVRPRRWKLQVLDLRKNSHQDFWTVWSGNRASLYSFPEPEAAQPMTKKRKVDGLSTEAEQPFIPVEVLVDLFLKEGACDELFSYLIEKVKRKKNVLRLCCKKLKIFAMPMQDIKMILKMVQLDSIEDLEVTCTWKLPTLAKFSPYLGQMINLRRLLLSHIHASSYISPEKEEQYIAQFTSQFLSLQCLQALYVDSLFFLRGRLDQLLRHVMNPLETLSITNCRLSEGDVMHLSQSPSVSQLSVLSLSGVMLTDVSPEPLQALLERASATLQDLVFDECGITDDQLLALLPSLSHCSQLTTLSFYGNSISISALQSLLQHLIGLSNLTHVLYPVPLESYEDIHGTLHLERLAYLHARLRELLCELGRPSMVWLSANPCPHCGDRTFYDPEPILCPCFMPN
UniProt Q6ZMI0: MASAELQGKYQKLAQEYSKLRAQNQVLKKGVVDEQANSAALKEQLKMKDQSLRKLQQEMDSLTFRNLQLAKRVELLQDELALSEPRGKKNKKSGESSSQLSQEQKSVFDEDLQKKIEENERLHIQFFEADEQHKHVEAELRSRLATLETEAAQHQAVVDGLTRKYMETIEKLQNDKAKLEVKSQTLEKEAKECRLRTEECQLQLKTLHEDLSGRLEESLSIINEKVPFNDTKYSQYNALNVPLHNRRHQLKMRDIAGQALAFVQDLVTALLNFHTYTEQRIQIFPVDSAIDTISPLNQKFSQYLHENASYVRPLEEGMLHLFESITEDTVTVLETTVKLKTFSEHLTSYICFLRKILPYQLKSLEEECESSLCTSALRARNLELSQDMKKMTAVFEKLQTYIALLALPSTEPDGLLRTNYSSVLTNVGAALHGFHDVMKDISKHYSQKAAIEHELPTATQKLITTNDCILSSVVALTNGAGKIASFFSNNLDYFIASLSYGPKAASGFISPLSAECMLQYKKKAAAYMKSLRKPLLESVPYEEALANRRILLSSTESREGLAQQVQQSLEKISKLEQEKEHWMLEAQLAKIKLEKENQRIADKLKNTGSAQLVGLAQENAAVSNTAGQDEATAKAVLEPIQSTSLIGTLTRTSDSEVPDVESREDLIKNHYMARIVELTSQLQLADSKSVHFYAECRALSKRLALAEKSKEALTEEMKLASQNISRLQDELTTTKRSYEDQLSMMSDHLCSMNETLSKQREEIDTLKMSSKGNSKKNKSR
UniProt P60510: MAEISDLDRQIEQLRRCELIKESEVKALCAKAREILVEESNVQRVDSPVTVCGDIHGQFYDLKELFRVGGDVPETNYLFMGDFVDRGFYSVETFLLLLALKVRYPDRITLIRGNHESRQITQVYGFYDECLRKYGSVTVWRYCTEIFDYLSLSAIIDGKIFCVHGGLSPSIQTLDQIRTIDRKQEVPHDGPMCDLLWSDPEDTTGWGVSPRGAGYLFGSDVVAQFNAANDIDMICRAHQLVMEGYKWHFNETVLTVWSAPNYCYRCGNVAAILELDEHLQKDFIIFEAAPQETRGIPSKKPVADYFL
UniProt Q9H875: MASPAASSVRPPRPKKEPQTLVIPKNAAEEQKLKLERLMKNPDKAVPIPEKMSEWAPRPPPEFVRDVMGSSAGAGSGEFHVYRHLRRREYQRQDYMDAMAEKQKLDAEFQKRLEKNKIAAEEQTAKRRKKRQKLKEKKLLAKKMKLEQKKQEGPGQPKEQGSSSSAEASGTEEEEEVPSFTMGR
UniProt P51817: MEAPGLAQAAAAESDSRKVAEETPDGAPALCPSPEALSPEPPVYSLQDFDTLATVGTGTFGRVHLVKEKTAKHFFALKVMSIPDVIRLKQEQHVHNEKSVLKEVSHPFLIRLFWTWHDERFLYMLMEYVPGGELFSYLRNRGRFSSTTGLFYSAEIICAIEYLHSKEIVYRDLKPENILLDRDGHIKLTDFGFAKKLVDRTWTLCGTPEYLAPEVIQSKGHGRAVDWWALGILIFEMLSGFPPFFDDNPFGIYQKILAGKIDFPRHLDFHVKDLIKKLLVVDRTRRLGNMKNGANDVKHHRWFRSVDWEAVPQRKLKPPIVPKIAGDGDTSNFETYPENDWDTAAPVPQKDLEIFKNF
UniProt Q9H2H8: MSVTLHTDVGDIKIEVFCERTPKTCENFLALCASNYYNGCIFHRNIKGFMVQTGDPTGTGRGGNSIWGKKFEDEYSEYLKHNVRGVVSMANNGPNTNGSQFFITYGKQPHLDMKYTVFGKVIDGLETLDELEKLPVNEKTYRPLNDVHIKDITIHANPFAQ
UniProt Q8NAV1: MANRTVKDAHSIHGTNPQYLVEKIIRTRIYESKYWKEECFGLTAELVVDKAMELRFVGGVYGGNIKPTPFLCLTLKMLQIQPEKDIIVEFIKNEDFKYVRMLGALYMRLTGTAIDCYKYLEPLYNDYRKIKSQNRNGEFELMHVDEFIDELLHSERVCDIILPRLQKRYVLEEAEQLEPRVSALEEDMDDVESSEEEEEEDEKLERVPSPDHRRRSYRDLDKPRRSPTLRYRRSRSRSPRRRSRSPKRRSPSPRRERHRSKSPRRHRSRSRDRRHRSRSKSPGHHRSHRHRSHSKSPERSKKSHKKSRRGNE
UniProt O14744, whole entry, looked up: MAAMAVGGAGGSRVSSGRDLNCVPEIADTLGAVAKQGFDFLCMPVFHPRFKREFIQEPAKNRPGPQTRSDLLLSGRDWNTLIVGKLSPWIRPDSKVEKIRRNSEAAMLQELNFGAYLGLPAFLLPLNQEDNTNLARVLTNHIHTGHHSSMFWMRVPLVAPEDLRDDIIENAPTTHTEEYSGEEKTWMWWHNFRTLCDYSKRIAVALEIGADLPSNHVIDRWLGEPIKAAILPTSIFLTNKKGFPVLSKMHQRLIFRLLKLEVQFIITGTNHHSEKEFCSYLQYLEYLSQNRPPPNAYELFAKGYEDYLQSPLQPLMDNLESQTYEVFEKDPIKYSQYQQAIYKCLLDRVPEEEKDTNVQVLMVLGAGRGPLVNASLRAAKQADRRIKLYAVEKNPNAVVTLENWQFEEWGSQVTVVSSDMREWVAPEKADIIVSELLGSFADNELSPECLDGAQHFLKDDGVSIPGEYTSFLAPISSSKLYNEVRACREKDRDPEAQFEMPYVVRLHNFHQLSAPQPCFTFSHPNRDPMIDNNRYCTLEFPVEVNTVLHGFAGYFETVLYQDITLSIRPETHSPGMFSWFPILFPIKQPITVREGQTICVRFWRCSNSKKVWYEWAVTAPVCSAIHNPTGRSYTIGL
UniProt Q9NR22, whole entry, looked up: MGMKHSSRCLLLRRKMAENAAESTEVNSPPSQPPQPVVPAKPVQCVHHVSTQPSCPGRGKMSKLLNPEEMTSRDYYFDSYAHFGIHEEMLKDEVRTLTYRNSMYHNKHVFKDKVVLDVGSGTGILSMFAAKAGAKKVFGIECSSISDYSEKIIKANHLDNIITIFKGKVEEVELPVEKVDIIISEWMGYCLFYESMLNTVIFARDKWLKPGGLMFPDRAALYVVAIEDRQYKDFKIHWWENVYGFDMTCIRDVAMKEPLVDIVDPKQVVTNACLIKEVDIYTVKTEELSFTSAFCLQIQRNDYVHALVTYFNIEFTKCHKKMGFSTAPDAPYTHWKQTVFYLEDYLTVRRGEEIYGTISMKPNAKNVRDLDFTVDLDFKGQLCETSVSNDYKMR
UniProt P62140, whole entry, looked up: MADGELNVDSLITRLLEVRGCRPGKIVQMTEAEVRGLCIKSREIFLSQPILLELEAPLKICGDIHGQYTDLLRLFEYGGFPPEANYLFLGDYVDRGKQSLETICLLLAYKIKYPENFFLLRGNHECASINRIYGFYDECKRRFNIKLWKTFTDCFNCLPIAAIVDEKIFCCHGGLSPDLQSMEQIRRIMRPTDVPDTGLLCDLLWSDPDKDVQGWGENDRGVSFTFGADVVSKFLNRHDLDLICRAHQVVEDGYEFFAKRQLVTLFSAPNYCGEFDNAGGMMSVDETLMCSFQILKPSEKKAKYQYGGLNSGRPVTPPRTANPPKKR

[1] = compound: CCCS(=O)(=O)Nc1ccc(F)c(C(=O)c2c[nH]c3ncc(Cl)cc23)c1F
Outline: as §1

barasertib = compound: CCN(CCCOc1ccc2c(Nc3cc(CC(=O)Nc4cccc(F)c4)[nH]n3)ncnc2c1)CCOP(=O)(O)O [barasertib]
Outline: as §1

[2] = compound: CC[C@@H]1C(=O)N(C)c2cnc(Nc3ccc(C(=O)NC4CCN(C)CC4)cc3OC)nc2N1C1CCCC1
Outline: as §1

volasertib = compound: CC[C@@H]1C(=O)N(C)c2cnc(Nc3ccc(C(=O)N[C@H]4CC[C@H](N5CCN(CC6CC6)CC5)CC4)cc3OC)nc2N1C(C)C [volasertib]
Outline: as §1

[3] = compound: CCn1c(C(=O)N(C2CC2)C2CC2)cc2c3c(ncn3C)c(Nc3cc(C)n(C)n3)nc21
Outline: as §1

[4] = compound: CCn1cc(-c2ccnc3[nH]c(-c4cccc(CN(C)C)c4)cc23)c(-c2ccc(NC(=O)N(C)C)cc2)n1
Outline: as §1

[5] = compound: CN1CCC(CNc2ccc3ncc(-c4cccc(OC(F)(F)F)c4)n3n2)CC1
Outline: as §1

saracatinib = compound: CN1CCN(CCOc2cc(OC3CCOCC3)c3c(Nc4c(Cl)ccc5c4OCO5)ncnc3c2)CC1 [saracatinib]
Outline: as §1

sotrastaurin = compound: CN1CCN(c2nc(C3=C(c4c[nH]c5ccccc45)C(=O)NC3=O)c3ccccc3n2)CC1 [sotrastaurin]
Outline: as §1

Target	log2 fold change (vemurafenib)	log2 fold change [1]	log2 fold change (barasertib)	log2 fold change [2]	log2 fold change (volasertib)	log2 fold change [3]	log2 fold change [4]	log2 fold change [5]	log2 fold change (saracatinib)	log2 fold change (sotrastaurin)
PPP2R3C (UniProt Q969Q6)	inactive: -0.081	inactive: -0.094	inactive: 0.094	inactive: -0.244	inactive: 0	inactive: 0.071	active: -0.392	inactive: 0.115	inactive: 0.04	
PPP1R16A (UniProt Q96I34)	inactive: -0.057	inactive: 0.083	inactive: -0.054	inactive: 0.021	inactive: -0.051	inactive: 0.024	inactive: -0.154	inactive: 0.038		
PRPF3 (UniProt O43395)	inactive: 0.001	inactive: 0.015	inactive: 0	inactive: 0.017	inactive: -0.035	inactive: 0.018	inactive: 0.127	inactive: -0.045	inactive: -0.002	inactive: -0.014
PRKRA (UniProt O75569)	inactive: -0.012	inactive: 0.031	inactive: -0.042	inactive: -0.082	inactive: -0.052	inactive: 0.041	inactive: 0	inactive: -0.016	inactive: 0.03	inactive: 0.009
PRCC (UniProt Q92733)	inactive: -0.007	inactive: -0.001	inactive: -0.053	inactive: 0.027	inactive: 0.039	inactive: 0.014	inactive: -0.025	inactive: 0.052	inactive: 0.024	inactive: -0.022
PPIH (UniProt O43447)	inactive: -0.013	inactive: -0.002	inactive: 0.042	inactive: -0.021	inactive: -0.018	inactive: 0.008	inactive: 0	inactive: 0.016	inactive: -0.003	inactive: 0.02
PPP1R14C (UniProt Q8TAE6)	inactive: -0.183	inactive: 0.008	inactive: 0.002	inactive: -0.084	inactive: 0.037	inactive: 0.072	inactive: -0.217	inactive: 0.017	inactive: -0.022	
PPP1R12C isoform 4 (UniProt Q9BZL4)	inactive: 0.008	inactive: -0.022	inactive: -0.049	inactive: 0.046	inactive: 0.007	inactive: -0.007	inactive: -0.06	inactive: 0.054	inactive: 0.016	inactive: 0.075
PPP1R9B (UniProt Q96SB3)	inactive: -0.001	inactive: 0.016	inactive: -0.025	inactive: 0.056	inactive: 0.024	inactive: 0.004	inactive: 0.196	inactive: -0.095	inactive: -0.018	inactive: -0.004
PPP2R1A (UniProt P30153)	inactive: -0.025	inactive: -0.011	inactive: 0.009	inactive: -0.005	inactive: -0.009	inactive: 0.007	inactive: 0.051	inactive: -0.026	inactive: 0.007	inactive: -0.019
PRAME (UniProt P78395)	inactive: 0.028	inactive: -0.012	inactive: 0.003	inactive: -0.086	inactive: -0.009	inactive: 0.017	inactive: -0.058	inactive: 0.011	inactive: 0	inactive: 0.018
PPM1F (UniProt P49593)	inactive: -0.008	inactive: -0.001	inactive: -0.024	inactive: -0.065	inactive: -0.041	inactive: 0.184	inactive: 0.033	inactive: -0.006	inactive: -0.013	inactive: 0.004
PPP1R21 (UniProt Q6ZMI0)	inactive: 0.178	inactive: 0.025	inactive: 0.04	inactive: 0.171	inactive: -0.052	inactive: -0.072	inactive: -0.009	inactive: -0.055	inactive: -0.014	inactive: -0.008
PRKCI (UniProt P41743)	inactive: -0.033	inactive: 0.079	inactive: -0.009	inactive: -0.018	inactive: -0.03	inactive: -0.029	inactive: -0.004	inactive: 0.003	inactive: -0.048	inactive: -0.041
PPP6R3 isoform 5 (UniProt Q5H9R7)	inactive: -0.008	inactive: 0.006	inactive: -0.011	inactive: 0.012	inactive: 0.008	inactive: -0.015	inactive: 0.002	inactive: 0.02	inactive: 0.01	inactive: 0.018
PRMT2 (UniProt P55345)	inactive: 0.067	inactive: 0.048	inactive: -0.106	inactive: 0.007	inactive: -0.303	inactive: -0.065	inactive: -0.109	inactive: -0.031	inactive: -0.117	
PPP4C (UniProt P60510)	inactive: 0.029	inactive: 0.014	inactive: -0.04	inactive: 0.009	inactive: -0.001	inactive: -0.024	inactive: 0.093	inactive: -0.035	inactive: -0.009	inactive: 0.018
PPP2R5A (UniProt Q15172)	inactive: 0.04	inactive: 0.038	inactive: 0.021	inactive: -0.101	inactive: -0.072	inactive: 0.009	inactive: 0.103	inactive: -0.195	inactive: -0.025	inactive: 0.046
PRKRIP1 (UniProt Q9H875)	inactive: -0.014	inactive: 0.025	inactive: -0.014	inactive: 0.007	inactive: 0.021	inactive: 0.016	inactive: -0.008	inactive: -0.019	inactive: -0.023	inactive: -0.004
PRKX (UniProt P51817)	inactive: 0.012	inactive: 0	inactive: 0.127	inactive: -0.111	inactive: -0.147	inactive: -0.189	inactive: -0.225	inactive: 0.389	inactive: 0.019	
PRDM10 isoform 6 (UniProt Q9NQV6)	inactive: 0.008	inactive: 0.111	inactive: 0.111	inactive: 0.02	inactive: 0.074	inactive: 0.09				
PRKDC (UniProt P78527)	inactive: 0.132	inactive: 0.014	inactive: -0.009	inactive: -0.058	inactive: -0.062	inactive: 0.063	inactive: -0.12	inactive: 0.097	inactive: -0.007	inactive: 0.048
PPIL3 (UniProt Q9H2H8)	inactive: 0.048	inactive: -0.017	inactive: 0.099	inactive: -0.004	inactive: -0.007	inactive: 0.027	inactive: 0.067	inactive: 0.021	inactive: 0.004	inactive: -0.03
PRPF38A (UniProt Q8NAV1)	inactive: -0.021	inactive: -0.011	inactive: -0.037	inactive: -0.029	inactive: -0.031	inactive: -0.055	active: -0.465	inactive: 0.046	inactive: 0.004	inactive: 0.191
PRKAG2 (UniProt Q9UGJ0)	inactive: -0.209	inactive: 0.001	inactive: 0.02	inactive: -0.118	inactive: -0.026	inactive: 0.107	inactive: -0.106	inactive: 0.022	inactive: -0.032	inactive: 0.144
PROCR (UniProt Q9UNN8)	inactive: -0.052	inactive: 0.049	inactive: 0.001	inactive: 0.099	inactive: 0.057	inactive: -0.079	inactive: -0.036	inactive: 0.086	inactive: -0.07	inactive: 0.146
PPP2R5B (UniProt Q15173)	inactive: -0.036	inactive: 0	inactive: -0.016	inactive: -0.057	inactive: 0.031	inactive: 0	inactive: -0.01	inactive: -0.079	inactive: 0.001	inactive: -0.074
PRMT5 (UniProt O14744)	inactive: 0.006	inactive: -0.008	inactive: -0.007	inactive: 0.02	inactive: -0.007	inactive: -0.009	inactive: -0.067	inactive: 0.017	inactive: -0.032	inactive: 0.015
PRMT8 (UniProt Q9NR22)	inactive: 0.059	inactive: 0.021	inactive: 0.007	inactive: -0.009	inactive: -0.009	inactive: -0.005	active: -0.285	inactive: 0.179	inactive: -0.018	inactive: 0.007
PPP1CB (UniProt P62140)	inactive: 0.002	inactive: 0.034	inactive: -0.008	inactive: 0.016	inactive: -0.001	inactive: -0.019	inactive: 0.076	inactive: -0.009	inactive: -0.013	inactive: 0.001

In another format: entries from further up
Target | log2 fold change (vemurafenib) | log2 fold change [1] | log2 fold change (barasertib) | log2 fold change [2] | log2 fold change (volasertib) | log2 fold change [3] | log2 fold change [4] | log2 fold change [5] | log2 fold change (saracatinib) | log2 fold change (sotrastaurin)
PPP1R16A (UniProt Q96I34) | inactive: -0.057 | inactive: 0.083 | inactive: -0.054 | inactive: 0.021 | inactive: -0.051 | inactive: 0.024 | inactive: -0.154 | inactive: 0.038 |  | 
PRPF3 (UniProt O43395) | inactive: 0.001 | inactive: 0.015 | inactive: 0 | inactive: 0.017 | inactive: -0.035 | inactive: 0.018 | inactive: 0.127 | inactive: -0.045 | inactive: -0.002 | inactive: -0.014
PPP1R14C (UniProt Q8TAE6) | inactive: -0.183 | inactive: 0.008 | inactive: 0.002 | inactive: -0.084 | inactive: 0.037 | inactive: 0.072 | inactive: -0.217 | inactive: 0.017 | inactive: -0.022 | 
PRKCI (UniProt P41743) | inactive: -0.033 | inactive: 0.079 | inactive: -0.009 | inactive: -0.018 | inactive: -0.03 | inactive: -0.029 | inactive: -0.004 | inactive: 0.003 | inactive: -0.048 | inactive: -0.041
PRKRIP1 (UniProt Q9H875) | inactive: -0.014 | inactive: 0.025 | inactive: -0.014 | inactive: 0.007 | inactive: 0.021 | inactive: 0.016 | inactive: -0.008 | inactive: -0.019 | inactive: -0.023 | inactive: -0.004
PRDM10 isoform 6 (UniProt Q9NQV6) | inactive: 0.008 | inactive: 0.111 | inactive: 0.111 | inactive: 0.02 | inactive: 0.074 | inactive: 0.09 |  |  |  | 
PPP1CB (UniProt P62140) | inactive: 0.002 | inactive: 0.034 | inactive: -0.008 | inactive: 0.016 | inactive: -0.001 | inactive: -0.019 | inactive: 0.076 | inactive: -0.009 | inactive: -0.013 | inactive: 0.001

— the supplement of paper PMC10849652
